# Some results were stated once for a whole list of compounds, not compound by compound. The name of at least one read-out is uncertain.
# Sequences of proteins named here, by UniProt entry; tags and fusion partners are left off.
# UniProt Q9UM07, whole entry: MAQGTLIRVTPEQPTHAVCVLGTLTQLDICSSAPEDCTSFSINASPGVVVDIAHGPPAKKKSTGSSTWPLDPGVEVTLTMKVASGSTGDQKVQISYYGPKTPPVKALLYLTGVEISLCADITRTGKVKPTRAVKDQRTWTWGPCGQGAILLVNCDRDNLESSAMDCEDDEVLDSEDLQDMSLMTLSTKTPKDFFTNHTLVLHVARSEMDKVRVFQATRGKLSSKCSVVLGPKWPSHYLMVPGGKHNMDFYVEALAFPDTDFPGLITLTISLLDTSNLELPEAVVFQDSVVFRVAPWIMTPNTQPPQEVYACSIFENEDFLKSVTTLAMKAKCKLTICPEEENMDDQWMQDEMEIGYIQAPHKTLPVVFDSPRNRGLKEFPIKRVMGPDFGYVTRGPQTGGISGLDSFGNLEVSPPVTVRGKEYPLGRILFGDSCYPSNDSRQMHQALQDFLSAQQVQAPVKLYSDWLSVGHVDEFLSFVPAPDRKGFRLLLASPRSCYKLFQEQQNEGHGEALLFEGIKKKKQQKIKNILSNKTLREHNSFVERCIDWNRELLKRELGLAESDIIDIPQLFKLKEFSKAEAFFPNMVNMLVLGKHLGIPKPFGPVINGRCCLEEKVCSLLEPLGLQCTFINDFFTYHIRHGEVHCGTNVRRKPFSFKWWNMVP
# Molecular target: Protein arginine deiminase 4 (PAD4) (Homo sapiens, UniProt Q9UM07)
# Test: PAD4 ammonia release assay
# Format: biochemical
# Details: PAD4 activity comparison
# Description: 1) Compound preparation: The compounds were diluted to 80× final concentrations. 2) The compounds were transferred to a 384-well assay plate by Tecan. DMSO: 1.25%. 3) Preparation of 1×Assay buffer: 100 mM HEPES, PH=8.0, 2 mM CaCl2, 50 mM NaCl, 0.1 mM TCEP, 0.6 mg/ml BSA. 4) 2× enzyme working solution (PAD4:20 nM) was prepared with assay buffer, and 10 μL of the obtained working solution were added to the 384-well assay plates. 5) The plate was centrifuged at 1000 rpm for 1 min. 6) After the centrifuge, the plate was incubated at RT for 15 min. 7) 2×BAEE substrate mix (600 μM) was prepared with assay buffer and 10 μL of the obtained substrate mix were added to each well. 8) The plate was centrifuged at 1000 rpm for 1 min and then incubated at RT for 60 min. 9) 1.5× detection mix (DTT:4 mM, OPA:3 mM, EDTA: 30 mM) was prepared, and 10 μL of the mix were added to the plate. 10) The plate was centrifuged at 1000 rpm for 1 min and then incubated at RT for 120 min. 11) The 384-well plates were placed into the Envision (PerkinElmer) and the assay data were collected.
# The percent (%) inhibition at each concentration of compound was calculated based on and relative to the signal in the HPE (50 μM ref. compound) and ZPE (1.25% DMSO) wells included within each assay plate. […] The endpoint value (IC50) for the reference compound was evaluated in each experiment as a quality control measure. […]
smiles,measurement,value
"CCC1CNc2cccc3cc(-c4nc5cc(C(=O)N6C[C@H]7CC[C@@H]6[C@@H]7N)cc(OC)c5n4C)n1c23 (stereo partly drawn) [Example 102, ((1R,4R,7R)-7-amino-2-azabicyclo[2.2.1]heptan-2-yl)(2-(3-ethyl-2,3-dihydro-1H-pyrrolo[1,2,3-de]quinoxalin-5-yl)-7-methoxy-1-methyl-1H-benzo[d]imidazol-5-yl)methanone]",folds more potent than compounds A and B (PAD4 IC50),35-100 folds
"CC(C)C1CNc2cccc3cc(-c4nc5cc(C(=O)N6C[C@H]7CC[C@@H]6[C@@H]7N)cc(F)c5n4C)n1c23 (stereo partly drawn) [Example 104, ((1R,4R,7R)-7-amino-2-azabicyclo[2.2.1]heptan-2-yl)(7-fluoro-2-(3-isopropyl-2,3-dihydro-1H-pyrrolo[1,2,3-de]quinoxalin-5-yl)-1-methyl-1H-benzo[d]imidazol-5-yl)methanone]",folds more potent than compounds A and B (PAD4 IC50),35-100 folds

# Source: US20250136607A1 (REGOR PHARMACEUTICALS, INC., priority 2021, published 2025)
